# In all, about 330,000 compounds went through this assay and about 7,700 (2.3%) were called active. The shares of active, inactive and inconclusive entries below differ from those in the screen. Calls follow the shape of the dose curve; as a rule, active = well fitted inhibition curve with a large enough effect; inconclusive = small, poorly fitted or top-dose-only effect, or effect the other way; inactive = flat fitted curve, though single readings scatter. Potencies beside an inconclusive call are fits to weak or partial responses and may not hold up.
# Experiment: qHTS screen for small molecules that inhibit ELG1-dependent DNA repair in human embryonic kidney (HEK293T) cells expressing luciferase-tagged ELG1; also: nearly all actives have a fitted effect of over 55% in size
# Details: HEK293T ELG1-luciferase reporter, luminescence, 16 h, DNA damage induced by 5-fluorouridine; activity change, negative = inhibition: at 46.1 µM (top of the series)
# Summary of the method: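 5-Fluorouridine DNA damage + compound/DMSO, 2,000 cells/well, 16 h, 37 °C/5% CO2. ONE-Glo, 30 min RT, luminescence. Readout = decrease in reporter signal.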
# % is scaled to controls: 0 for no effect and ±100 for the full control effect; potency is read from the fitted curve at half-maximal effect.
SMILES,"activity change, negative = inhibition",Potency
Cc1ccc(-c2nnc(NC(=O)c3ccc([N+](=O)[O-])o3)o2)c(C)c1,inactive: -15.6%,
CCN1CCc2c(sc(NC(=O)c3ccc(S(=O)(=O)N4CC(C)OC(C)C4)cc3)c2C(N)=O)C1 (stereo unspecified),inactive: 2.91%,
CC(C)N(Cc1cnn(C)c1)C(=O)C1CCC(=O)N(CCc2cccc(F)c2)C1 (stereo unspecified),,"inconclusive: 16.4 µM [activator, partial curve]"
C[C@@H](CO)NC(=O)c1ccc2c3n(nc2c1)-c1ccccc1CO3,,"inconclusive: 0.651 µM [activator, full curve]"
CCN(CC)C(=O)C1CCCN(c2ccc([N+](=O)[O-])cc2/C=N/NC(=O)c2ccc([N+](=O)[O-])cc2)C1 (stereo unspecified),,"inconclusive: 16.4 µM [inhibitor, single point]"
COCCCn1c(C)cc(C(=O)COC(=O)CCc2nc3ccccc3c(=O)[nH]2)c1C,,"inconclusive: 29.1 µM [activator, single point]"
Cc1nc(SCc2ccccc2)nc2c1CCC2,,"inconclusive: 6.51 µM [activator, single point]"
COc1cc(-c2cc3nc(C)c(C)c(=O)n3[nH]2)cc(OC)c1OC,,"inconclusive: 29.1 µM [activator, partial curve, poor fit]"
O=C(CSc1ccccc1C(=O)O)c1ccccc1,,"inconclusive: 16.4 µM [activator, partial curve]"
Cc1ccc(C)c(NC(=O)COC(=O)CNC(=O)c2ccccc2Cl)c1,inactive: 10.6%,
CN(C)C(CNC(=O)c1cccc(S(=O)(=O)N2CC3(C)CC2CC(C)(C)C3)c1)c1ccco1 (stereo unspecified),,"inconclusive: 23.1 µM [inhibitor, single point]"
COc1ccc(C(=O)OCc2c(C)noc2C)cc1,,"inconclusive: 20.6 µM [activator, single point]"
CCc1ccc(NC(=O)Cn2cccc2)cc1,,"inconclusive: 16.4 µM [activator, single point]"
CCSc1nnc(NC(=O)c2ccccc2)s1,,"inconclusive: 16.4 µM [activator, partial curve]"
O=C(NCCc1ccccc1)c1cccc(N2CCCC2=O)c1,,"inconclusive: 2.31 µM [activator, partial curve]"
CCOC(=O)c1ccc(COC(=O)c2cc3ccccc3oc2=O)o1,,"inconclusive: 16.4 µM [activator, partial curve]"
CCN(CC)S(=O)(=O)c1ccc(Cl)c(NC(=O)c2ccc(C#N)cc2)c1,,"inconclusive: 18.4 µM [inhibitor, partial curve, poor fit]"
O=C(CCNC(=O)c1ccc(Cl)cc1)Nc1c(F)c(F)cc(F)c1F,inactive: 8.72%,
CCCCc1nnc(NC(=O)c2ccc(OCc3c(C)noc3C)cc2)s1,,"inconclusive: 6.51 µM [inhibitor, single point]"
COc1cc(OC)cc(C(=O)Nc2ccc3nc4n(c(=O)c3c2)CCCC4)c1,,"inconclusive: 6.51 µM [activator, single point]"
COc1cc(NC(=O)c2ccccc2F)ccc1NC(=O)c1cc2ccccc2o1,inactive: -3.65%,
COc1cc(OC)c2c(-c3ccccc3)cc(=O)oc2c1C(CCN1CCCC1)c1ccc2c(c1)OCO2 (stereo unspecified),inactive: 24.1%,
Nc1nc(SCc2ccccc2)ns1,,"inconclusive: 6.51 µM [activator, partial curve]"

SMILES,"activity change, negative = inhibition",Potency
O=c1[nH]c2c(c(=O)[nH]1)CCC2,inactive: -0.227%,
C=CCn1c(SCC(=O)Nc2ccc(C(=O)OCC)cc2)nnc1-c1cccs1,,"inconclusive: 9.2 µM [inhibitor, partial curve, poor fit]"
Cc1cc(N2CCN(C(=O)c3ccco3)CC2)n2nc(-c3cccc(F)c3)cc2n1,,active: 16.4 µM
CC(=O)c1cccc(N/C=C\C(=O)c2ccc(C)cc2)c1,,"inconclusive: 2.31 µM [activator, partial curve]"
COc1ccccc1NS(=O)(=O)c1cc(NC(=O)c2ccncc2)ccc1N1CCCC1,,"inconclusive: 29.1 µM [inhibitor, single point]"
CSc1nc(N)nc2c1ncn2CC(=O)N[C@H](CO)Cc1c[nH]c2ccccc12,inactive: -4.15%,
CCOc1cc(S(=O)(=O)n2nc(C)cc2C)ccc1Br,inactive: -3.9%,
Cc1ccc(S(=O)(=O)N2CCC(NC(=O)C3CCCCC3)CC2)cc1,,"inconclusive: 29.1 µM [activator, single point]"
CC(=O)c1ccc(N2CCN(C(=O)c3ccc4ccccc4n3)CC2)cc1,inactive: -7.8%,
CC(C)C(=O)Nc1nnc(SCC(=O)Nc2ccc3c(c2)OCO3)s1,,"inconclusive: 23.1 µM [inhibitor, single point]"
COc1ccccc1CNC(=O)CN(C)S(=O)(=O)c1ccc(F)cc1,inactive: 0.0528%,
Cc1[nH]c2ccccc2c1/C=C/C(=O)c1ccccc1,,"inconclusive: 20.6 µM [activator, partial curve, poor fit]"
COc1ccc(N(CC(C)C)S(=O)(=O)c2nnc(NC(=O)c3ccco3)s2)cc1,inactive: 12.4%,
Cc1noc(C)c1COc1ccccc1C(=O)N(C)Cc1ccc(C(C)(C)C)cc1,,"inconclusive: 29.1 µM [inhibitor, single point]"
O=C(CCN1CCOCC1)NNC(=O)Nc1cccc([N+](=O)[O-])c1,inactive: -2.3%,
Cc1ccc(S(=O)(=O)n2c(CN3CCCC(C)C3)nc3ccccc32)cc1 (stereo unspecified),inactive: -10.1%,
C[C@@H]1CN([C@@H](C)CO)C(=O)c2cc(NC(=O)Nc3ccccc3)ccc2O[C@H]1CN(C)C(=O)Nc1cccc2ccccc12,,active: 14.6 µM
CCc1ccc2oc(C(=O)Nc3cccnc3)c(C)c2c1,,"inconclusive: 2.59 µM [activator, partial curve]"
COc1ccccc1NC(=S)N(Cc1ccco1)Cc1cc2cccc(C)c2[nH]c1=O,,active: 16.4 µM
Cc1ccc(NC(=O)c2oc3ccccc3c2COC(C)C)cc1S(=O)(=O)N1CCOCC1,,active: 18.3 µM
CC(SCc1ccccc1)C(=O)Nc1ccccc1F (stereo unspecified),inactive: 4.71%,
Cc1ccc(N(C(=O)c2csnn2)C(C(=O)NC2CCCCC2)c2ccccn2)cc1C (stereo unspecified),inactive: -3.15%,
CN(C)CCN(Cc1ccccc1)S(=O)(=O)c1csc(C(N)=O)c1,,"inconclusive: 23.1 µM [activator, single point]"

# Structural class, the compounds so far containing a nitro group on carbon (three)
SMILES,"activity change, negative = inhibition",Potency
Cc1ccc(-c2nnc(NC(=O)c3ccc([N+](=O)[O-])o3)o2)c(C)c1,inactive: -15.6%,
CCN(CC)C(=O)C1CCCN(c2ccc([N+](=O)[O-])cc2/C=N/NC(=O)c2ccc([N+](=O)[O-])cc2)C1 (stereo unspecified),,"inconclusive: 16.4 µM [inhibitor, single point]"
O=C(CCN1CCOCC1)NNC(=O)Nc1cccc([N+](=O)[O-])c1,inactive: -2.3%,

# Source: PubChem BioAssay AID504467 (National Center for Advancing Translational Sciences (NCATS), 2011)
